Reference: publication PMC12071352
These are yes or no findings as the source states them, for the method shown. Binding seen in cells or lysates may run through a third protein. Some results given as binding are weak or reduced against the parent protein; the word gives no strength.

Chains of the proteins cited; added tags and fusions are not shown.
UniProt P63158: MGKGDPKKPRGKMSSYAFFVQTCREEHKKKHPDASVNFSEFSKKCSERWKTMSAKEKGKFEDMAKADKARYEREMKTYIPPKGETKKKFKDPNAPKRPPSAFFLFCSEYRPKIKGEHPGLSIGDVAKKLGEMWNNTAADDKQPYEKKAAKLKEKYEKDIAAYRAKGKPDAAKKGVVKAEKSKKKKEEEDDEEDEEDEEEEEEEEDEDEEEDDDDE

B1: Caveolin-1 (protein, UniProt P49817 1-178)
chain: MSGGKYVDSEGHLYTVPIREQGNIYKPNNKAMADEVTEKQVYDAHTKEIDLVNRDPKHLNDDVVKIDFEDVIAEPEGTHSFDGIWKASFTTFTVTKYWFYRLLSTIFGIPMALIWGIYFAILSFLHIWAVVPCIKSFLIEIQCISRVYSIYVHTFCDPLFEAIGKIFSNIRISTQKEI
B2: Phosphorylated caveolin-1 (protein, UniProt P49817 1-178)
chain: B1 chain
modifications: phosphorylated (site not given; Src-dependent)

Biological target: High-mobility group box 1 (mouse (endogenous in 3T3-L1)) (UniProt P63158)
Assay: co-IP; lysates (1000 µg) of undifferentiated and 5-day differentiated 3T3-L1 adipocytes; precipitated with anti-HMGB1 antibody overnight at 4 °C, Protein A/G-Sepharose beads, three PBS washes; blotted with anti-pCAV1, anti-CAV1 and anti-HMGB1

Binder	binding
B1	binds
B2	binds
